Assay results taken from publication PMC8565353.
Results are given in words; binding and its absence hold for the method and conditions named. In cells and extracts the contact can be indirect. A yes stands for co-enrichment or nearness to the bait. Other partners may have been found. For some of these results: A no says only that the protein was not detected with the bait.

Sequences of proteins named here, by UniProt entry; tags and fusion partners are left off.
UniProt Q6P6C2: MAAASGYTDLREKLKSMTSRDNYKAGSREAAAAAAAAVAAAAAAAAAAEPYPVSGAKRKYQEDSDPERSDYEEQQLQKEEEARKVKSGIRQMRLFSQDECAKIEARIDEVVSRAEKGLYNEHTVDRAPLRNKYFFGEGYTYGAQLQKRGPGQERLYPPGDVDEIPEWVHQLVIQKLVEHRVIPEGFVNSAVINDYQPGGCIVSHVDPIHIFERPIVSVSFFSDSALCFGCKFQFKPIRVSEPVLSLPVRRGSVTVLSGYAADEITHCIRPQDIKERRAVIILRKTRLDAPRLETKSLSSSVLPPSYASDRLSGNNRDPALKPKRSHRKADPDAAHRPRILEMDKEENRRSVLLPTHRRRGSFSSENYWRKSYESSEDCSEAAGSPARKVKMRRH

Columns and labels:
[1] = biological target: ALKBH5-Strep II-HA (human) (UniProt Q6P6C2); assay: affinity purification with mass spectrometry; as the Strep II-tag pull-down with LC-MS/MS, lysate supplemented with 2 μg/ml RNase A ('digested RNA' condition) only
[2] = biological target: ALKBH5-Strep II-HA (human) (UniProt Q6P6C2); assay: affinity purification with mass spectrometry; Strep II-tagged bait captured on StrepTactinXT beads from 293T total lysate, 4 h at 4°C, with RNase inhibitor (-RNase A) or with 2 μg/ml RNase A; washes with 350 mM KCl; LC-MS/MS; against Strep II-eGFP control
[3] = biological target: METTL3, C-terminal BirA* fusion (human), Q86U44; assay: proximity labelling; BioID: BirA*-fused bait induced with 200 ng/ml dox in stable 293T cells, 50 μM biotin for 24 h, streptavidin bead purification of biotinylated proteins, LC-MS/MS; hits filtered by Limma (>4-fold, adjusted P < 0.01) and SAINT (score >0.74) against BirA* and NLS-BirA* controls; settings: remark: other sources report otherwise
[4] = biological target: METTL3, N-terminal BirA* fusion (human), Q86U44; assay: as above; settings: remark: other sources report otherwise

| Binder | binding [1] | binding [2] | binding [3] | binding [4] |
| --- | --- | --- | --- | --- |
| Acinus (protein, UniProt Q9UKV3 1-1341) MWRRKHPRTSGGTRGVLSGNRGVEYGSGRGHLGTFEGRWRKLPKMPEAVGTDPSTSRKMAELEEVTLDGKPLQALRVTDLKAALEQRGLAKSGQKSALVKRLKGALMLENLQKHSTPHAAFQPNSQIGEEMSQNSFIKQYLEKQQELLRQRLEREAREAAELEEASAESEDEMIHPEGVASLLPPDFQSSLERPELELSRHSPRKSSSISEEKGDSDDEKPRKGERRSSRVRQARAAKLSEGSQPAEEEEDQETPSRNLRVRADRNLKTEEEEEEEEEEEEDDEEEEGDDEGQKSREAPILKEFKEEGEEIPRVKPEEMMDERPKTRSQEQEVLERGGRFTRSQEEARKSHLARQQQEKEMKTTSPLEEEEREIKSSQGLKEKSKSPSPPRLTEDRKKASLVALPEQTASEEETPPPLLTKEASSPPPHPQLHSEEEIEPMEGPAPAVLIQLSPPNTDADTRELLVSQHTVQLVGGLSPLSSPSDTKAESPAEKVPEESVLPLVQKSTLADYSAQKDLEPESDRSAQPLPLKIEELALAKGITEECLKQPSLEQKEGRRASHTLLPSHRLKQSADSSSSRSSSSSSSSSRSRSRSPDSSGSRSHSPLRSKQRDVAQARTHANPRGRPKMGSRSTSESRSRSRSRSRSASSNSRKSLSPGVSRDSSTSYTETKDPSSGQEVATPPVPQLQVCEPKERTSTSSSSVQARRLSQPESAEKHVTQRLQPERGSPKKCEAEEAEPPAATQPQTSETQTSHLPESERIHHTVEEKEEVTMDTSENRPENDVPEPPMPIADQVSNDDRPEGSVEDEEKKESSLPKSFKRKISVVSATKGVPAGNSDTEGGQPGRKRRWGASTATTQKKPSISITTESLKSLIPDIKPLAGQEAVVDLHADDSRISEDETERNGDDGTHDKGLKICRTVTQVVPAEGQENGQREEEEEEKEPEAEPPVPPQVSVEVALPPPAEHEVKKVTLGDTLTRRSISQQKSGVSITIDDPVRTAQVPSPPRGKISNIVHISNLVRPFTLGQLKELLGRTGTLVEEAFWIDKIKSHCFVTYSTVEEAVATRTALHGVKWPQSNPKFLCADYAEQDELDYHRGLLVDRPSETKTEEQGIPRPLHPPPPPPVQPPQHPRAEQREQERAVREQWAEREREMERRERTRSEREWDRDKVREGPRSRSRSRDRRRKERAKSKEKKSEKKEKAQEEPPAKLLDDLFRKTKAAPCIYWLPLTDSQIVQKEAERAERAKEREKRRKEQEEEEQKEREKEAERERNRQLEREKRREHSRERDRERERERERDRGDRDRDRERDRERGRERDRRDTKRHSRSRSRSTPVRDRGGRR | no binding (only with RNase A (2 μg/ml)) | binds |  |  |
| TRIM28, Q13263 1-835 (protein) MAASAAAASAAAASAASGSPGPGEGSAGGEKRSTAPSAAASASASAAASSPAGGGAEALELLEHCGVCRERLRPEREPRLLPCLHSACSACLGPAAPAAANSSGDGGAAGDGTVVDCPVCKQQCFSKDIVENYFMRDSGSKAATDAQDANQCCTSCEDNAPATSYCVECSEPLCETCVEAHQRVKYTKDHTVRSTGPAKSRDGERTVYCNVHKHEPLVLFCESCDTLTCRDCQLNAHKDHQYQFLEDAVRNQRKLLASLVKRLGDKHATLQKSTKEVRSSIRQVSDVQKRVQVDVKMAILQIMKELNKRGRVLVNDAQKVTEGQQERLERQHWTMTKIQKHQEHILRFASWALESDNNTALLLSKKLIYFQLHRALKMIVDPVEPHGEMKFQWDLNAWTKSAEAFGKIVAERPGTNSTGPAPMAPPRAPGPLSKQGSGSSQPMEVQEGYGFGSGDDPYSSAEPHVSGVKRSRSGEGEVSGLMRKVPRVSLERLDLDLTADSQPPVFKVFPGSTTEDYNLIVIERGAAAAATGQPGTAPAGTPGAPPLAGMAIVKEEETEAAIGAPPTATEGPETKPVLMALAEGPGAEGPRLASPSGSTSSGLEVVAPEGTSAPGGGPGTLDDSATICRVCQKPGDLVMCNQCEFCFHLDCHLPALQDVPGEEWSCSLCHVLPDLKEEDGSLSLDGADSTGVVAKLSPANQRKCERVLLALFCHEPCRPLHQLATDSTFSLDQPGGTLDLTLIRARLQEKLSPPYSSPQEFAQDVGRMFKQFNKLTEDKADVQSIIGLQRFFETRMNEAFGDTKFSAVLVEPPPMSLPGAGLSSQELSGGPGDGP |  |  | no binding | no binding |
